For orientation: AC50 means the concentration giving half of the maximal activity seen. Read a high AC50 as activity only at high concentration.

This passage reports cell number change and AC50 results from PubChem BioAssay AID2685 (National Center for Advancing Translational Sciences (NCATS), 2010).

The nature of this test: qHTS Assay for Lipid Storage Modulators in Drosophila S3 Cells.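 As to cell number change: cells counted by Cell Tracker Red CMTPX staining in the red channel.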 The note with it: BODIPY lipid droplet fluorescence, 18-24 h; for cell number change: measured here: cell count max response, cells fed with added oleic acid. Summed up:
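Drosophila S3 cells loaded with oleic acid (400 uM, as added) and compounds at several concentrations; lipid droplets imaged by 488-nm laser-scanning cytometry, 500–530 nm intensity and object ratio to cell channel. Percent activity normalized to 20 uM Triacsin C.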
In general terms: Quantitative high-throughput screening tests each substance at several concentrations.

The mark [1] stands for this setting: measured here: lipid fluorescence (Fed channel) AC50, cells fed with added oleic acid.
Where [2] appears, read: measured here: cell number channel AC50, cells fed with added oleic acid.

Some of the results follow. These are further read-outs of the screen, such as a control signal, another cell line or another target. No call is given for them. The list favours compounds with an active or inconclusive main result. Potencies come from curve fits of mixed quality, noted in brackets.

Consider `COc1cccc(NC(=O)C(NC2CCCC2)c2ccccc2)c1` (configuration not stated), for which the cell number change is -25.4%. In addition, the concentration at half-maximal activity (AC50) under setting [1] is 23.1 µM [rising, single point].
Turning to `CN(C)c1ccc(C(C[N+](=O)[O-])c2c(N)n(C)c(=O)n(C)c2=O)c(F)c1C#N` (configuration not stated), the cell number change is -31.7%. Also, the AC50 under setting [2] is 6.51 µM [falling, partial curve]. The AC50 under setting [1] was 6.51 µM [falling, partial curve].
In the case of `CCOc1cccc(NC(=O)C2CCCN(S(=O)(=O)c3ccc(-n4cnnn4)cc3)C2)c1` (configuration not stated), the cell number change was 33.1%. Also, under setting [2], the AC50 was 29.1 µM [rising, single point]. Also, under setting [1], the concentration at half-maximal activity (AC50) was 14.6 µM [rising, partial curve].
On to `CCOP(=O)(OCC)c1nc(-c2cccc3ccccc23)oc1NCCc1ccc(OC)cc1`, for which the AC50 under setting [1] was 1.3 µM [rising, full curve].
For `CC(C)C(=O)N(Cc1cc2ccccc2[nH]c1=O)C(C)C`, the cell number change was found to be 30.2%. The half-maximal activity concentration (AC50) under setting [2] is 23.1 µM [rising, single point].
Regarding `C=CCN1C(=O)[C@@H]2Cc3c([nH]c4ccccc34)C(c3ccc(O)cc3)N2C1=S` (some centres not stated), the cell number change is -14.6%. The half-maximal activity concentration (AC50) under setting [1] was 29.1 µM [falling, single point].
`O=C(NNS(=O)(=O)c1ccc([N+](=O)[O-])cc1)C1CCCCC1`: the cell number change amounted to 10.1%. The AC50 under setting [1] was 29.1 µM [rising, single point].
As for `O=[N+]([O-])/C(C=Nc1ccccc1O)=C\Nc1ccccc1O`, the cell number change is -14%.
As for `O=C(COC(=O)c1ccccc1-n1cnnn1)c1ccc(F)c(F)c1`, the cell number change worked out at 17.1%. The AC50 under setting [1] is 6.51 µM [falling, single point].
With `Cc1ccc(NC(=O)C(=O)NCC2CCCN2S(=O)(=O)c2cccs2)cc1` (configuration not stated), the cell number change came to 95.6%. Further, under setting [2], the concentration at half-maximal activity (AC50) is 8.2 µM [rising, partial curve].
In the case of `O=S(=O)(c1ccccc1)c1nc(-c2ccco2)oc1NCCCn1ccnc1`, the AC50 was 0.651 µM [rising, full curve] under setting [2] and 0.82 µM [rising, full curve] under setting [1].
Take `CC(=O)c1cccc(NS(=O)(=O)c2ccc(-c3cc(C)no3)s2)c1`: the cell number change is -16.1%.
Consider `O=C(Nc1cc(Cl)cc(Cl)c1)C(NCCCO)c1ccccc1` (configuration not stated), for which the cell number change stood at 52.5%. Further, the AC50 under setting [2] was 29.1 µM [rising, partial curve, poor fit].
Consider `Cc1cc(NCCN(C)C)n2nc(-c3cccs3)cc2n1`, for which the cell number change was 5.67%. Moreover, the AC50 under setting [1] was 6.51 µM [rising, single point].
With `Nc1nonc1-n1nnc(C(=O)N/N=C/c2cccnc2)c1-c1ccccc1`, the cell number change came out at 3.63%.
As to `CN1CCN(S(=O)(=O)c2cccc(C(=O)NCc3ccc(Cl)cc3)c2)CC1`, the AC50 under setting [1] was 2.91 µM [rising, partial curve, poor fit].
Regarding `COCCCN1C(=O)c2ccc(C(=O)O)cc2C1=O`, the cell number change was -60.6%. The concentration at half-maximal activity (AC50) under setting [2] was 4.11 µM [falling, full curve]. Further, under setting [1], the half-maximal activity concentration (AC50) is 6.51 µM [falling, single point].
As for `CCCCn1c(N)c(N(CC(C)C)C(=O)CN(C)Cc2cccc(OC)c2)c(=O)[nH]c1=O`, the cell number change is -24.2%. In addition, under setting [2], the half-maximal activity concentration (AC50) was 0.731 µM [falling, full curve, poor fit].
As for `NC(=O)C1CCN(C2=C(Cl)C(=O)c3ccccc3C2=O)CC1`, the cell number change was -77.5%. Under setting [2], the AC50 is 20.6 µM [falling, single point]. In addition, the AC50 under setting [1] was 18.4 µM [falling, single point].
For the compound `COc1ccc(/C=N/N(CCC(=O)NC(C)(C)C)C2=NS(=O)(=O)c3ccccc32)cc1`, the cell number change was -14.4%. Also, the concentration at half-maximal activity (AC50) under setting [1] was 29.1 µM [falling, single point].
With `O=S(=O)(c1cnc[nH]1)N1CCc2ccccc21`, the cell number change was 3.25%. Besides, the AC50 under setting [2] was 1.46 µM [falling, partial curve, poor fit].
In the case of `CC(Sc1cccc[n+]1[O-])c1ccccc1` (configuration not stated), the cell number change was found to be 0.529%. For the same compound, under setting [1], the concentration at half-maximal activity (AC50) is 29.1 µM [rising, single point].
`CCCC1NC(=O)NC(C)=C1C(=O)OCC` (configuration not stated): the cell number change is -13.3%. In addition, under setting [2], the AC50 was 2.59 µM [falling, partial curve]. Also, the AC50 under setting [1] was 2.91 µM [falling, partial curve, poor fit].
`Cc1ccc(C(C(=O)NCc2ccccc2)N(C(=O)c2csnn2)c2cccc3ccccc23)o1` (configuration not stated): the cell number change was -39.7%. In addition, the AC50 under setting [2] is 18.4 µM [falling, single point]. Besides, the AC50 under setting [1] was 18.4 µM [falling, single point].
For the compound `C=CCOc1ccc(/C=C/C(=O)OCC(=O)N(C)C2CCS(=O)(=O)C2)cc1` (configuration not stated), under setting [1], the half-maximal activity concentration (AC50) is 0.206 µM [rising, full curve].
`CCNC(=O)NC(=O)C(C)OC(=O)C1CCN(S(=O)(=O)c2ccccc2F)CC1` (configuration not stated): the cell number change was 26.3%. For the same compound, under setting [1], the concentration at half-maximal activity (AC50) is 0.58 µM [falling, full curve, poor fit].
For the compound `Cc1ccc(OCCCN2C(=O)C(=O)c3cc(C)ccc32)cc1`, the cell number change was 4.08%. Moreover, the AC50 under setting [1] was 0.0517 µM [falling, full curve, poor fit].
Consider `O=C(C(O)c1ccccc1)N1N=C(c2ccccc2)CC1(O)C(F)(F)F` (configuration not stated), for which the cell number change was found to be 9.12%.
Take `COc1ccc(NC(=O)C(=O)NCC(c2ccco2)N2CCc3ccccc3C2)cc1` (configuration not stated): the cell number change was determined as 40.3%. Further, under setting [2], the AC50 was 5.17 µM [rising, partial curve]. Further, under setting [1], the AC50 is 8.2 µM [rising, partial curve].
As for `Brc1ccc(C2C3=C(Nc4ncnn42)c2ccccc2OC3c2ccncc2)cc1` (configuration not stated), the cell number change is -4.16%. Further, under setting [2], the AC50 was 1.84 µM [rising, partial curve, poor fit]. For the same compound, the AC50 under setting [1] is 0.651 µM [rising, partial curve, poor fit].
Regarding `CN(CC(=O)Nc1cccc(F)c1)C(=O)/C=C/c1ccc(Br)s1`, the cell number change is -5.72%.
Regarding `COc1ccccc1N1CCN(C(=O)CCc2nnc3ccc(N4CCCC4)nn23)CC1`, the cell number change was -43.3%. Further, the half-maximal activity concentration (AC50) under setting [2] is 32.6 µM [falling, single point]. Moreover, the half-maximal activity concentration (AC50) under setting [1] was 18.4 µM [falling, single point].
For the compound `COc1ccc(-c2cc(-c3cc(OC)ccc3O)[nH]n2)cc1`, the cell number change is -56.3%. In addition, the AC50 under setting [2] is 29.1 µM [falling, single point]. Moreover, the concentration at half-maximal activity (AC50) under setting [1] was 18.4 µM [falling, single point].
With `c1cncc(C2Nc3ccccc3-c3nc4ccccc4n32)c1` (configuration not stated), the cell number change was 45.1%. Also, under setting [2], the AC50 is 0.0291 µM [rising, full curve, poor fit].
For the compound `COC(=O)NNC(=S)Nc1cc(OC)ccc1OC`, the cell number change was -28.2%. Also, under setting [2], the concentration at half-maximal activity (AC50) is 0.82 µM [falling, full curve, poor fit].
Take `O=C1C2CCCCN2C(=O)N1CCCCN1CCN(c2cccc(Br)c2)CC1` (configuration not stated): the cell number change is -2.49%. For the same compound, under setting [1], the concentration at half-maximal activity (AC50) is 6.51 µM [falling, single point].
As for `COc1cccc(CNC(=O)CCC2CCCN(C(=O)c3ccc(F)c(Cl)c3)C2)c1` (configuration not stated), the cell number change was -31.7%. Besides, the AC50 under setting [2] is 29.1 µM [falling, single point]. The AC50 under setting [1] is 29.1 µM [falling, single point].
For `CCN(CC(=O)Nc1c(F)cccc1F)C(=O)c1cccc(-n2cccc2)c1`, the cell number change came out at 4.05%. Under setting [2], the AC50 is 0.411 µM [falling, partial curve, poor fit].
With `N#Cc1c(C(F)(F)F)cc(-c2ccco2)nc1SCc1ccccn1`, the cell number change was -5.18%. Moreover, under setting [2], the AC50 is 0.92 µM [rising, full curve]. Under setting [1], the AC50 was 6.51 µM [falling, partial curve].
As to `Cc1ccc2c(c1)N(CC(=O)NCCCN1CCN(C)CC1)C(=O)CO2`, the cell number change was 17.9%.
Take `CCOC(=O)C1CCCN(C(=O)c2ccc(S(=O)(=O)N3CCOCC3)cc2)C1` (configuration not stated): the cell number change is -4.53%. Besides, the AC50 under setting [1] was 0.0058 µM [falling, full curve, poor fit].
Turning to `Cc1cccc(-c2ncc(CN3CCC(CO)(CCCc4ccccc4)CC3)cn2)c1`, the cell number change is -47.8%. Also, the AC50 under setting [2] is 25.9 µM [falling, single point]. The AC50 under setting [1] was 25.9 µM [falling, partial curve, poor fit].
As for `COc1ccc(S(=O)(=O)N2CC(O)CC2C(=O)OCC(=O)Nc2ccc(Cl)cn2)cc1` (configuration not stated), the cell number change was -26.1%. Further, the AC50 under setting [2] was 0.116 µM [falling, full curve, poor fit]. Moreover, the AC50 under setting [1] was 0.326 µM [falling, full curve, poor fit].
On to `COc1cc(C(=O)NCC(=O)OCc2ccccc2Cl)cc(OC)c1OC`, for which the cell number change was -36.4%.
As for `Cn1c(=O)c(=O)n(C)c2cc(S(=O)(=O)N3CCc4ccccc43)ccc21`, the cell number change was -1.19%. The AC50 under setting [1] is 1.84 µM [rising, partial curve].
On to `Cc1ccc(CNS(=O)(=O)c2ccc3c(c2)CCN3C(=O)CCCC(=O)O)cc1`, for which the cell number change turned out to be 29.6%. For the same compound, the AC50 under setting [1] is 29.1 µM [rising, single point].
Regarding `CC(C)c1ccc(/C=C/C2=NNC(=O)CC2)cc1`, the cell number change was -1.49%. Further, the AC50 under setting [1] was 2.91 µM [rising, single point].
As to `CC1=NN(c2ccccc2)C(=O)C1N=Nc1cccc(O)c1` (configuration not stated), the cell number change was -54.9%. Further, the AC50 under setting [2] is 16.4 µM [falling, partial curve]. Besides, under setting [1], the AC50 was 6.51 µM [falling, single point].
As to `O=C(Nc1ccccc1Cl)NC1CCCCCCC1`, the cell number change stood at 3.47%. In addition, under setting [1], the AC50 was 0.092 µM [falling, full curve, poor fit].
As for `COCc1cc(C)n(CC(=O)NCc2ccccc2)c(=O)c1C#N`, the cell number change was 112%.
`Cc1nnc(NC(=O)c2cc3ccccc3o2)s1`: the cell number change is 14.1%. Moreover, under setting [1], the AC50 is 5.17 µM [rising, single point].
As for `CCOC(=O)c1cc2occc2n1CC(=O)N1CCN(C(=O)c2ccco2)CC1`, the cell number change worked out at 47.9%. Besides, under setting [2], the AC50 is 7.31 µM [rising, partial curve]. Also, under setting [1], the concentration at half-maximal activity (AC50) is 10.3 µM [rising, partial curve].
Consider `Cc1cc(C(=O)NC(C)c2ccncc2)cs1` (configuration not stated), for which the cell number change amounted to 40.2%. For the same compound, the AC50 under setting [2] was 0.517 µM [rising, partial curve]. The concentration at half-maximal activity (AC50) under setting [1] was 10.3 µM [rising, partial curve].
For `Cc1cc(C)cc(NS(=O)(=O)c2ccc3[nH]c(=O)ccc3c2)c1`, the cell number change amounted to 19.1%.
As to `CCn1c(SCc2nnc(-c3ccccc3)o2)nc2c1c(=O)n(C)c(=O)n2C`, the cell number change is 14.7%. Also, the AC50 under setting [1] was 4.61 µM [rising, partial curve].
`Cc1cccc(N(CC(=O)NC2CC2)S(=O)(=O)c2ccc(Cl)cc2)c1`: the cell number change was 7.18%. Also, under setting [1], the AC50 is 32.6 µM [rising, single point].
